These are yes or no findings as the source states them, for the method shown. Binding seen in cells or lysates may run through a third protein. Some entries that bind do so weakly or less than the wild type. Tags and fused reporters may be left off the sequences shown.
Target: FLAG-FASN (UniProt P49327)
Assay: co-IP

Amino acid sequences for entries named in this document (tags omitted).
UniProt P49327: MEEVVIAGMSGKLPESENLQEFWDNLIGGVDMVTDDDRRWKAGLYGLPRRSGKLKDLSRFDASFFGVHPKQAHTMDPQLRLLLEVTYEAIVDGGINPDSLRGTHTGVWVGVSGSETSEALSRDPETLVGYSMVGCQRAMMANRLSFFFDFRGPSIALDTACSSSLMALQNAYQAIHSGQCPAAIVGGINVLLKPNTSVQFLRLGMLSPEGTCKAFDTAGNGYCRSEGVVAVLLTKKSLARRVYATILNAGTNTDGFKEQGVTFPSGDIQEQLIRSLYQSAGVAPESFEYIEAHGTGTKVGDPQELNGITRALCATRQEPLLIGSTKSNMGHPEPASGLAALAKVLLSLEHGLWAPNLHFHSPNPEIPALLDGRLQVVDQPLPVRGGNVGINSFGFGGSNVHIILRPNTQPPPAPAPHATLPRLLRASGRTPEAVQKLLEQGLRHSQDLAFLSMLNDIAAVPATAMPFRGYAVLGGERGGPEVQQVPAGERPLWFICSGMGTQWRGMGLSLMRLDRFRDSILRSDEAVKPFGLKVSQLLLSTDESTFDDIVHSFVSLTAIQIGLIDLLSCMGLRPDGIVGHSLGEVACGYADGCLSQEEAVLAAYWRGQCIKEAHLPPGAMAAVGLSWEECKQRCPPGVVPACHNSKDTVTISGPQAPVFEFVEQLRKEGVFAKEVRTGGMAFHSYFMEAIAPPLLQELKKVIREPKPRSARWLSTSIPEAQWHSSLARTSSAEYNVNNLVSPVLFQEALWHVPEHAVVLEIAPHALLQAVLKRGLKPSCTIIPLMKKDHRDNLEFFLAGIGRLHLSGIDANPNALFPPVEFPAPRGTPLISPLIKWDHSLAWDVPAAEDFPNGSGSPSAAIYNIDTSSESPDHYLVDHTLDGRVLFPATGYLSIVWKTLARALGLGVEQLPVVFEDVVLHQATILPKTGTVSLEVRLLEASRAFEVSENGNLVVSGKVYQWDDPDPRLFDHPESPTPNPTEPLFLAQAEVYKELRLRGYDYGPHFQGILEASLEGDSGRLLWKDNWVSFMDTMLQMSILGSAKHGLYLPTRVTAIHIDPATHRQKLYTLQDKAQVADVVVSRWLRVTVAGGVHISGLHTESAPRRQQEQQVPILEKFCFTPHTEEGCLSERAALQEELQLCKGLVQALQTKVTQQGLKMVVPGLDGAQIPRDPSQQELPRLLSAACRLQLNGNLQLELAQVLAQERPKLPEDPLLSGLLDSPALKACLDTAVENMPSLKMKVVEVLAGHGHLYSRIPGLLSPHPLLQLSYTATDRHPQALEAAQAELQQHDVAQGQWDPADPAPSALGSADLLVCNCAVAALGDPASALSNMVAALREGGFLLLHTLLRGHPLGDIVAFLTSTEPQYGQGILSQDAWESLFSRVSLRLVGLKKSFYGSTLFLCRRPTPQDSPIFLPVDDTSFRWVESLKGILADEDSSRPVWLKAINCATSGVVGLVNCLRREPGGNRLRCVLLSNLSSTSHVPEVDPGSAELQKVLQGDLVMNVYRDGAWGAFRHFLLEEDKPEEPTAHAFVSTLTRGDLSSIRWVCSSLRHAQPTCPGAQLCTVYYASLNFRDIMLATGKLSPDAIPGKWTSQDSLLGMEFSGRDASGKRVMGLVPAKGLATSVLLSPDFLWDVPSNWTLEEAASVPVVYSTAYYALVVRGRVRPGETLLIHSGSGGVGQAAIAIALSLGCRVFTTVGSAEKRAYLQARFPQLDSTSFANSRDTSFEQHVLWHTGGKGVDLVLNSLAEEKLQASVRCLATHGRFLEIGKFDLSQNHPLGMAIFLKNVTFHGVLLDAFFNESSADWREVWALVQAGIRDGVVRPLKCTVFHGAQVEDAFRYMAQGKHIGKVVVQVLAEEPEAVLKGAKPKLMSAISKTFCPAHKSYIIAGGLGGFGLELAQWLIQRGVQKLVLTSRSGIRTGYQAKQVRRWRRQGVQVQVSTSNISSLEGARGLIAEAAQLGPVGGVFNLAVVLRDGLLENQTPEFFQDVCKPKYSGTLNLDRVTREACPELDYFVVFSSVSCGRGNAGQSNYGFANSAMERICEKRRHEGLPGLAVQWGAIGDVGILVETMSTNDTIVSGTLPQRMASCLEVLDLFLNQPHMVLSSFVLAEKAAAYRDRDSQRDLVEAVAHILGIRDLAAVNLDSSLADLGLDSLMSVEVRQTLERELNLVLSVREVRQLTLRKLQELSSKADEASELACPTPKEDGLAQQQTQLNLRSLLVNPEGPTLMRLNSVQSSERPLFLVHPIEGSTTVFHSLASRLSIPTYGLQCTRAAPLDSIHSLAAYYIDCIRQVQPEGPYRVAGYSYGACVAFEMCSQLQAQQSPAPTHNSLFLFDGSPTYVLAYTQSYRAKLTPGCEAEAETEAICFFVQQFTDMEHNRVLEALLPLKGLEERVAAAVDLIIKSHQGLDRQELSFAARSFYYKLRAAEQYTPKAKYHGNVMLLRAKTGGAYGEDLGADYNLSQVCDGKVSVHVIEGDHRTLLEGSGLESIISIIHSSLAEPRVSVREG

binding: binds
B1: HA-TMEM41B (protein, UniProt Q5BJD5 1-291)
chain: MAKGRVAERSQLGAHHTTPVGDGAAGTRGLAAPGSRDHQKEKSWVEAGSARMSLLILVSIFLSAAFVMFLVYKNFPQLSEEERVNMKVPRDMDDAKALGKVLSKYKDTFYVQVLVAYFATYIFLQTFAIPGSIFLSILSGFLYPFPLALFLVCLCSGLGASFCYMLSYLVGRPVVYKYLTEKAVKWSQQVERHREHLINYIIFLRITPFLPNWFINITSPVINVPLKVFFIGTFLGVAPPSFVAIKAGTTLYQLTTAGEAVSWNSIFILMILAVLSILPAIFQKKLKQKFE

Reference: article doi:10.1101/2025.03.24.644797
